{
  "source": "patent US7772001B2",
  "about": "“Directed differentiation of embryonic stem cells into an endoderm cell” (Yissum Research Development Company Of the Hebrew …, priority 2000, dated 2010)",
  "assay_type_in_all_cases": "cell-based",
  "key": {"[1]": {"test_system": "human EBs", "test": "NF-H immunostaining of plated EBs, neuronal network complexity", "experimental": "(§1) In Situ Hybridization and Immunohistochemistry: EBs or their plated derivatives were fixed in 4% paraformaldehyde. In in-situ experiments, hybridization to a 50-mer 2′-O-methyl 5′-biotinylated cDNA of NF-L (SEQ ID NO:1) (CCTGCGTGCGGATGGAC […]) followed. The probes were then detected with streptavidin-conjugated alkaline phosphatase using a fluorogenic substrate (Grifman et al, 1998). For immunohistochemistry, EBs were either embedded in paraffin and sectioned at 10 μM, or stained directly on the plates. Mouse monoclonal anti-NF-II was used as a primary antibody, and was detected with Cy3-conjugated goat anti-mouse igG.\n(§2) Cell Culture. Human ES cells were grown and EBs were generated as described in Example 1. Four days following initiation of aggregation growth factors were administered: retinoic acid (Sigma): 10-^7 M (Bain et al, 1995) or 10^−6 (Bain et al, 1996); TGFβ1 (Sigma): 2 ng/ml (Slager et al, 1993); βNGF (New Biotechnology, Israel): 100 ng/ml (Wobus et al, 1988). After 21 days, EBs were plated on 5 μm/cm^2 collagen treated plates, either as whole EB's, or as single cells dissociated with trypsin/EDTA. The cultures were maintained for an additional week or 2 days, respectively.\n(§3) In situ hybridization and immunohistochemistry was carried out according to Example 1. […]"}, "[2]": {"test_system": "human EBs", "test": "RT-PCR of neuron-specific genes in EBs treated with RA", "settings": "21-day-old EBs + RA"}, "[3]": {"test_system": "human EBs (from human ES cells)", "test": "In situ hybridization to NF-L RNA in cells derived from dissociated EBs", "experimental": "as §1, §2, §3"}, "[4]": {"test_system": "human differentiated embryonic (DE) cells", "test": "Morphology of DE cells cultured with growth factors", "settings": "several days on plastic, continuous exposure to growth factor (FIG. 1B)", "experimental": "(§4) Cell Culture: Human embryonic stem cells were grown on a feeder layer of mouse embryonic fibroblasts (MEF) and then transferred to gelatin coated plates and cultured further to reduce the number of murine cells in the culture. Differentiation into embryoid bodies (EBs) was initiated by transfer to Petri dishes, where the embryoid bodies remained in suspension. After 5 days, the EBs become dissociated and cells are cultured as a monolayer forming differentiated embryonic (DE) cells. This protocol allows for initial differentiation of the human embryonic stem cells as aggregates and further differentiation as a monolayer wherein cells can be exposed to exogenous growth factors. The DE cells were cultured for 10 days in the presence of 8 different growth factors: NGF, bFGF, Activin-A, TGFβ1, HGF, EGF, BMP4 and retinoic acid (RA) (FIG. 1A).\nTo induce formation of EBs, ES cells were transferred using trypsin/EDTA (0.1%/l mM) to plastic Petri dishes to allow their aggregation and prevent adherence to the plate. Human EBs were grown in the same culture medium, except that it lacked leukemia inhibitory factor (LIF) and bFGF. The EBs were cultured for 5 days and then dissociated and plated on tissue culture plates coated with 50 μg/ml Fibronectin (Boehringer Mannheim). […]"}, "[5]": {"test_system": "human differentiated embryonic (DE) cells", "test": "RT-PCR of cell specific genes in DE cells treated with growth factors", "experimental": "as §4\nTo induce formation of EBs, ES cells were transferred using trypsin/EDTA (0.1%/l mM) to plastic Petri dishes to allow their aggregation and prevent adherence to the plate. Human EBs were grown in the same culture medium, except that it lacked leukemia inhibitory factor (LIF) and bFGF. The EBs were cultured for 5 days and then dissociated and plated on tissue culture plates coated with 50 μg/ml Fibronectin (Boehringer Mannheim). The cells were grown in the presence of the following human recombinant growth factors used singly or in groups: Basic Fibroblast Growth Factor (bFGF) (Swoboda et al, 1999)—10 ng/ml (Gibco BRL); Transforming Growth Factor Beta 1 (TGFβ1) (Swoboda et al, 1999)—2 ng/ml (R&D Systems); Activin-A (Slager et al, 1993)—20 ng/ml (R&D Systems); Bone Morphogenic Protein 4 (BMP-4) (Slager et al, 1993; Bain et al, 1996)—10 ng/ml (R&D Systems); Hepatocyte Growth Factor (HGF)/Scatter Factor (Doetsch et al, 1999)—20 ng/ml (R&D Systems); Epidermal Growth Factor (EGF) (Doetsch et al, 1999)—100 ng/ml (R&D Systems); βNerve Growth Factor (NGF) (Johansson et al, 1999)—100 ng/ml (R&D Systems); Retinoic acid (RA) (Deacon et al, 1998; Peschanski et al, 1995)—1 μM (Sigma). Under these conditions the differentiated embryonic (DE) cells were grown for another 10 days. All of the examined growth factors are absent from the KnockOut™ serum replacement in which the embryonic cells were cultured.\nRT-PCR Analysis: Total RNA was extracted using Atlas™ Pure Total RNA Kit (Clontech). cDNA was synthesized from 1 μg total RNA, using Atlas™ RT-for-PCR Kit (Clontech). cDNA samples were subjected to PCR amplification with DNA primers selective for the human genes. For each gene, the DNA primers were derived from different exons to ensure that the PCR product represents the specific mRNA species and not genomic DNA. PCR was performed using the Clontech Advantaq+™ RT-PCR kit and using a two-step cycle at 68° C.\nPrimers were synthesized for the following genes: neurofilament heavy chain (NF-H), phosphoprotein enriched in astrocytes (PEA-15), Keratin, Dopamine β Hydroxylase (DβH), Follicular Stimulating Hormone (FSH), Enolase, Myosin light polypeptide2 (myosin), Cartilage Matrix Protein (CMP), Renin, Kallikrein, Wilms Tumor 1 (WTI), β-Globin (β-Glob), δ-Globin (δ-Glob), Cardiac Actin (cACT), Albumin, α1 anti-trypsin (α1 AT), Lipase, Amylase, PDX-1, Insulin, Glucagon, Surfactant, Parathyroid Hormone (PTH), α-feto protein (αFP), Retinoic Acid Receptor type alpha (RAR), Hepatocyte Growth Factor Receptor (c-Met), Nerve Growth Factor Receptor (NGFR), Fibroblast Growth Factor Receptor type I (FGFRI), Transforming Growth Factor Receptor type II (TGFRII), Epidermal Growth Factor Receptor type (EGFR), Activin Receptor type IIB (ACTRIIB), Bone Morphogenic Protein 4 Receptor type II (BMP4RII), Octamer Binding Protein 4 (Oct 4), Glyceraldehyde 3-phosphate dehydrogenase (G3PD), β-Actin. Also incorporated by reference, see http://www.ls.huji.ac.il/˜nissimb/factors_es/primers.html-ente.\nThe differentiation induced by growth factors was further examined by determining the expression of a panel of 24 cell specific genes using RT-PCR. […]"}, "[6]": {"settings": "vs control without growth factor (FIG. 4)"}},
  "note": "At least one structure is not confirmed: it was looked up by name or label, or the drawing left a doubt.",
  "data": [
    {"smiles": "CC1=C(/C=C/C(C)=C/C=C/C(C)=C/C(=O)O)C(C)(C)CCC1", "note": "[RA, retinoic acid, reference compound]", "values": [
      {"measurement": "network morphology of neuronal processes", "setting": "[1]; RA-treated EBs plated on collagen", "value": "dramatic shift towards more complex network morphology"},
      {"measurement": "production of mature neurons", "setting": "[1]; summary statement", "value": "promotes"},
      {"measurement": "expression of dopa decarboxylase (DDC)", "setting": "[2]", "value": "observed the expression"},
      {"measurement": "expression of dopamine receptor DRD1", "setting": "[2]; not in naive ES cells", "value": "detected"},
      {"measurement": "expression of serotonin receptor 5HT2A", "setting": "[2]; not in naive ES cells", "value": "detected"},
      {"measurement": "expression of serotonin receptor 5HT5A", "setting": "[2]; not in naive ES cells", "value": "detected"},
      {"measurement": "effect on proportion of neuronal cells (NF-L RNA)", "setting": "[3]; lower concentration of RA (10^−7 M)", "value": "effect similar to NGF"},
      {"measurement": "number of neuronal cells that develop from human embryonic cells", "setting": "[3]; summary statement", "value": "enhance"},
      {"measurement": "cell morphology found in treated culture", "setting": "[4]", "value": "neuronal like cells"},
      {"measurement": "expression of adrenal markers", "setting": "[5]", "value": "induce"},
      {"measurement": "expression of endodermal markers", "setting": "[5]", "value": "not"},
      {"measurement": "expression of adrenal marker dopamine β hydroxylase (DβH)", "setting": "[5]; DE cells, 10 days with factor", "value": "expressed only when the cells are treated with retinoic acid"},
      {"measurement": "blood formation", "setting": "[5]; [6]", "value": "inhibits"},
      {"measurement": "differentiation into chondrocytes", "setting": "[5]; [6]", "value": "inhibits"},
      {"measurement": "differentiation into ectodermal cells", "setting": "[5]; [6]", "value": "allow or induce"},
      {"measurement": "differentiation into mesodermal cells", "setting": "[5]; [6]", "value": "allow or induce"},
      {"measurement": "differentiation of cells produced by the intermediate mesoderm", "setting": "[5]; [6]", "value": "inhibits"}
    ]}
  ]
}
